Experimental data: PubChem BioAssay AID1259308 (NCATS, 2017)
Assay: 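Genes whose loss raises luciferase production in HEK293 cells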 (primary screen). System: human HEK293 embryonic kidney cells stably expressing firefly luciferase (HEK-CMV-Luc2-Hygro). Reagent: single siRNA against human genes, 0.8 pmol siRNA per well. Time to read-out: 72 h. Measurement: 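Reporter luminescence and viable-cell signal on separate replicate plates, given as percent of non-targeting control and median/MAD z-scores, plus per-cell luciferase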. Reading the numbers: total luciferase, z-score: higher = more reporter protein produced. Active means: 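An siRNA counts as active if its total luciferase robust z-score exceeds 3; genes with two or more such siRNAs out of three were retested with fresh siRNAs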. Calls: active = raised luciferase; inactive = no rise.
This is a random part of about 59,000 reagents tested. About 1,510 of all reagents (2.6%) count as active. 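Calls use total luciferase alone and ignore viability, so some active siRNAs may act by altering cell number.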 A number with no mark means an inactive call. The numbers tell different reagents against one gene apart. Not all columns of the deposit are shown.

{"Target gene": "IMPDH1", "reagent no.": 1, "total luciferase, z-score": -1.03}
{"Target gene": "IMPDH1", "reagent no.": 2, "total luciferase, z-score": 0.303}
{"Target gene": "IMPDH1", "reagent no.": 3, "total luciferase, z-score": -0.328}
{"Target gene": "MAX", "reagent no.": 1, "total luciferase, z-score": 2.41}
{"Target gene": "MAX", "reagent no.": 2, "total luciferase, z-score": -1.42}
{"Target gene": "MAX", "reagent no.": 3, "total luciferase, z-score": 0.131}
{"Target gene": "RNF212", "reagent no.": 1, "total luciferase, z-score": 1.64}
{"Target gene": "RNF212", "reagent no.": 2, "total luciferase, z-score": -0.767}
{"Target gene": "RNF212", "reagent no.": 3, "total luciferase, z-score": -0.366}
{"Target gene": "TMEM200A", "reagent no.": 1, "total luciferase, z-score": 0.012}
{"Target gene": "TMEM200A", "reagent no.": 2, "total luciferase, z-score": -0.0356}
{"Target gene": "TMEM200A", "reagent no.": 3, "total luciferase, z-score": -0.212}
{"Target gene": "CRISP3", "reagent no.": 1, "total luciferase, z-score": -0.742}
{"Target gene": "CRISP3", "reagent no.": 2, "total luciferase, z-score": -1.06}
{"Target gene": "CRISP3", "reagent no.": 3, "total luciferase, z-score": -0.12}
{"Target gene": "FOXC2", "reagent no.": 1, "total luciferase, z-score": 2.17}
{"Target gene": "FOXC2", "reagent no.": 2, "total luciferase, z-score": 0.473}
{"Target gene": "FOXC2", "reagent no.": 3, "total luciferase, z-score": -1.12}
{"Target gene": "IRS4", "reagent no.": 1, "total luciferase, z-score": -1.8}
{"Target gene": "IRS4", "reagent no.": 2, "total luciferase, z-score": -0.402}
{"Target gene": "IRS4", "reagent no.": 3, "total luciferase, z-score": -1.19}
{"Target gene": "ARL16", "reagent no.": 1, "total luciferase, z-score": 0.289}
{"Target gene": "ARL16", "reagent no.": 2, "total luciferase, z-score": 0.322}
{"Target gene": "ARL16", "reagent no.": 3, "total luciferase, z-score": 1.59}
{"Target gene": "NLRP6", "reagent no.": 1, "total luciferase, z-score": -2.34}
{"Target gene": "NLRP6", "reagent no.": 2, "total luciferase, z-score": -0.501}
{"Target gene": "NLRP6", "reagent no.": 3, "total luciferase, z-score": -0.529}
{"Target gene": "DMGDH", "reagent no.": 1, "total luciferase, z-score": 0.682}
{"Target gene": "DMGDH", "reagent no.": 2, "total luciferase, z-score": -0.964}
{"Target gene": "DMGDH", "reagent no.": 3, "total luciferase, z-score": 0.614}
{"Target gene": "EDEM1", "reagent no.": 1, "total luciferase, z-score": -0.801}
{"Target gene": "EDEM1", "reagent no.": 2, "total luciferase, z-score": -0.0617}
{"Target gene": "EDEM1", "reagent no.": 3, "total luciferase, z-score": 0.342}

Laid out differently: 3 of the entries above.
| Target gene | reagent no. | total luciferase, z-score |
| --- | --- | --- |
| ARL16 | 2 | 0.322 |
| ARL16 | 3 | 1.59 |
| NLRP6 | 1 | -2.34 |
